Reference: patent publication US20230220056A1

Legend:
[1] = biological target: recombinant monkey GRP94 (monkey); test: ELISA, antigen coated on plate
[2] = biological target: recombinant monkey GRP94 (monkey); test: ELISA on coated antigen, single IgG concentration not given

binding [1]	binding [2]	Binder
binds	binds	anti-GRP94 human IgG antibody B5 (antibody, V domains shown) VH: EVQLLESGGGLVQPGGSLRLSCAASGFTFSNYYMSWVRQAPGKGLEWVSGIYPNSGSTYYADSVKGRFTISRDNSKNTLYLQMNSLRAEDTAVYYCARDPLHPARFPFDYWGQGTLVTVSS VL: QSVLTQPPSASGTPGQRVTISCTGSSSNIGNNAVSWYQQLPGTAPKLLIYADSHRPSGVPDRFSGSKSGTSASLAISGLRSEDEADYYCGAWDASLNAYVFGGGTKLTVL
binds	binds	anti-GRP94 human IgG antibody 3G7 (antibody, V domains shown) VH: EVQLLESGGGLVQPGGSLRLSCAASGFTFSNYSMSWVRQAPGKGLEWVSGIYYGSGNKYYADSVKGRFTISRDNSKNTLYLQMNSLRAEDTAVYYCAKNLASFDYWGQGTLVTVSS VL: QSVLTQPPSASGTPGQRVTISCSGSSSNIGSNSVNWYQQLPGTAPKLLIYSNSHRPSGVPDRFSGSKSGTSASLAISGLRSEDEADYYCGTWDSSLSGYVFGGGTKLTVL
binds	binds	anti-GRP94 human IgG antibody E5 (antibody, V domains shown) VH: EVQLLESGGGLVQPGGSLRLSCAASGFTFSNYAMSWVRQAPGKGLEWVSGISSSSGSTYYADSVKGRFTTSRDNSKNTLYLQMNSLRAEDTAVYYCARDRHPFSPNWFDYWGQGTLVTVSS VL: QSVLTQPPSASGTPGQRVTISCSGSPSNIGSNTVTWYQQLPGTAPKLLIYADSHRPSGVPDRFSGSKSGTSASLAISGLRSEDEADYYCASWDDSLNGYVFGGGTKLTVL

No constants are given. Whether binding was seen depends on the method and setting. A result given as binding can be weak or reduced; the word gives no strength.
